Experimental data as given in EP2420830B1.
Results are given in words; binding and its absence hold for the method and conditions named. For part of these data: Binding seen in cells or lysates may run through a third protein.

Legend:
[1] = molecular target: T1, GGA3 (from HeLa cell lysate) (human (HeLa cells)) (UniProt Q9NZ52); assay: GST pull-down from HeLa cell lysate, immunoblot
T1 sequence (looked up): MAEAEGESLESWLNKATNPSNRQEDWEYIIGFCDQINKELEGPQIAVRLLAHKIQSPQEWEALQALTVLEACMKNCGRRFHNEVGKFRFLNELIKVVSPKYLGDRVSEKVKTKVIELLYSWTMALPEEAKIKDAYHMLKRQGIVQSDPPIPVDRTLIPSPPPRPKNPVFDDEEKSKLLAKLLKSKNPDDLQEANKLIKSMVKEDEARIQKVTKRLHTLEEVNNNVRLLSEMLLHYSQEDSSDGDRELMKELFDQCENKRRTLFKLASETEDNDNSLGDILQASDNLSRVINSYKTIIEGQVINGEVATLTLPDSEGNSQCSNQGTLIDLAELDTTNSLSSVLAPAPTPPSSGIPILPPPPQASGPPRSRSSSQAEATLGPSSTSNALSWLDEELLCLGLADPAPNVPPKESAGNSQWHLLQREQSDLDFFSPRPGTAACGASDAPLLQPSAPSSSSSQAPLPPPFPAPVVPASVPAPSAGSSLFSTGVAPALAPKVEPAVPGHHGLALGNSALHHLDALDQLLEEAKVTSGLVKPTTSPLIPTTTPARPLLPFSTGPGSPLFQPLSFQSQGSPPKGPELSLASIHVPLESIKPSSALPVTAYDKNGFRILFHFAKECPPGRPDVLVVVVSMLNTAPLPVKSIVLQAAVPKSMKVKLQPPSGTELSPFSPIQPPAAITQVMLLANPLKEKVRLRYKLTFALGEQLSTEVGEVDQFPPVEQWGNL

[2] = molecular target: T1, GGA3 (from HeLa cell lysate) (human (HeLa cells)); assay: GST pull-down, immunoblot

Substance	binding [1]	binding [2]
GST fusion protein of the CIC-3 amino-terminal domain (CIC-3-NT, human aa 1-67)	no binding	
GST fusion protein of the CIC-3 carboxy-terminal domain (CIC-3-CT, human aa 586-760)		no binding
GST fusion protein of the CIC-5 carboxy-terminal domain (CIC-5-CT, human aa 573-746)	no binding	
